Measurements published in PubChem BioAssay AID248 (DTP/NCI, 2004).
The list does not hold the whole screen: it is rich in T/C values a quarter to a half above the control, in often repeated tests (any T/C) and in doses without a T/C. Other doses and runs of a compound stand elsewhere. T/C: endpoint of the treated group in % of that of the vehicle group. Some doses have a count of surviving animals in place of a T/C: the source holds a T/C of zero for them, seemingly a mark for toxic or unscored doses. Some doses without a T/C left all or most animals alive at the check, yet need not have been tolerated: the source hardly ever lists a survival T/C far under the control, and the zero likely stands for such cases as well. Survivors were counted at the toxicity check, usually on the fifth day, unless a day is given; later deaths do not show. Schedule codes are those of the source, read here as Q, the interval in days (D) or hours (H), X, the number of doses.

Tested on: L1210 leukemia ip in BDF1 mice, survival T/C
Assay: NCI In Vivo Anticancer Drug Screen. Data for tumor model L1210 Leukemia (intraperitoneal) in B6D2F1 (BDF1) mice
Conditions: T/C endpoint: mean survival time, schedule: Q01DX009 (ip), higher T/C = longer survival
[1] = dose: 200.0 mg/kg/injection, vehicle: Klucel (hydroxypropylcellulose) (HPC)

Row | Structure (SMILES) | survivor count (dose: 100.0 mg/kg/injection, vehicle: Klucel (hydroxypropylcellulose) (HPC)) | survivor count [1] | survivor count (dose: 400.0 mg/kg/injection, vehicle: saline)
1 | O=C1OC(c2ccccc2)=N/C1=C1\OC(=O)c2ccccc21 | 6 of 6 | 5 of 6 | 
2 | CC1(C)CCCC(Br)C1=O (centres undefined) |  | 3 of 3 | 
3 | COc1ccc(CC2Cc3cc(OC)c(OC)cc3C=N2)cc1OC (centres undefined) |  |  | 2 of 6
